Source: patent publication US20210261665A1
Results are given in words; binding and its absence hold for the method and conditions named. Some binding calls cover weakened binding; strength is not graded here.

B1: TY101-01-09 (antibody, V domains shown)
VH: EVQLVESGGGLVQPGGSLRLSCAASGFTFSSYTMSWVRQAPGKGLEWVSYISHGGGDTYYADSVKGRFTISRDNSKNTLYLQMNSLRAEDTAVYYCARHSGYERGYYYVMDYWGQGTLVTVSS
VL: DIQLTQSPDSLSVSLGERATINCKASESVDYYGFSFLNWFQQKPGQPPKLLIYAASNRQSGVPDRFSGSGSGTDFTLTISSLQAEDVAVYFCQQSKEVPWTFGQGTKLEIKR
B2: TY101-04-T3-05 (antibody, V domains shown)
VH: B1 VH
VL: B1 VL
B3: TY101-4G1 (antibody, V domains shown)
VH: B1 VH
VL: B1 VL

Each binder was assayed against cynomolgus monkey PD-1 on cells (cynomolgus monkey) (UniProt B0LAJ3) (assay: flow cytometry, CHOK1-cPD-1 cells, Alexa Fluor 488 anti-human IgG).

Binder | binding
B1 | binds
B2 | binds
B3 | binds
